System: MOR-Gs coupling
Test: Acute morphine-induced MOR Go-to-Gs coupling switch in organotypic striatal slice cultures
Format: cell-based, rat
Settings: 100 μM

SMILES: CN1CC[C@]23c4c5ccc(O)c4O[C@H]2[C@@H](O)C=C[C@H]3[C@H]1C5 [morphine]
- Go-to-Gs coupling switch by MOR, acute exposure (5 and 15 minutes of exposure): caused a complete Go-to-Gs coupling switch
- Go-to-Gs coupling switch by MOR, acute exposure (after 60 minutes of exposure): no further Gs coupling was detected

Reference: US8492349B2, “Analgesia with minimal tolerance and dependence by a mu opioid receptor agonist that also binds filamin A” (Pain Therapeutics, Inc., priority 2007, dated 2013)
